The results in this text go back to patent publication US20070292347A1 (LONDON HEALTH SCIENCES CENTRE RESEARCH, published 2007).

Results are given in words; binding and its absence hold for the method and conditions named. A result given as binding can be weak or reduced; the word gives no strength.

The target of the test is purified HLA-DRB1*0701 molecule (human). Kind of test: peptide competition assay on purified MHC class II.

B1: Vim 65-77, human vimentin peptide 65-77 (peptide)
peptide: SAVRARSSVPGVR
notes: Synthetic peptide (Genemed Synthesis); also called Vimentin 65-77; unmodified vimentin peptide
On to B1, for which the binding result is “binds”.
